From ChEMBL document CHEMBL3988442, “University of Dundee, Small-Polar-MMV Screening Library” (2021).

Protein sequences, listed by entry. Tags and fused reporters are not part of them.
UniProt E9BF75, entry or part of it: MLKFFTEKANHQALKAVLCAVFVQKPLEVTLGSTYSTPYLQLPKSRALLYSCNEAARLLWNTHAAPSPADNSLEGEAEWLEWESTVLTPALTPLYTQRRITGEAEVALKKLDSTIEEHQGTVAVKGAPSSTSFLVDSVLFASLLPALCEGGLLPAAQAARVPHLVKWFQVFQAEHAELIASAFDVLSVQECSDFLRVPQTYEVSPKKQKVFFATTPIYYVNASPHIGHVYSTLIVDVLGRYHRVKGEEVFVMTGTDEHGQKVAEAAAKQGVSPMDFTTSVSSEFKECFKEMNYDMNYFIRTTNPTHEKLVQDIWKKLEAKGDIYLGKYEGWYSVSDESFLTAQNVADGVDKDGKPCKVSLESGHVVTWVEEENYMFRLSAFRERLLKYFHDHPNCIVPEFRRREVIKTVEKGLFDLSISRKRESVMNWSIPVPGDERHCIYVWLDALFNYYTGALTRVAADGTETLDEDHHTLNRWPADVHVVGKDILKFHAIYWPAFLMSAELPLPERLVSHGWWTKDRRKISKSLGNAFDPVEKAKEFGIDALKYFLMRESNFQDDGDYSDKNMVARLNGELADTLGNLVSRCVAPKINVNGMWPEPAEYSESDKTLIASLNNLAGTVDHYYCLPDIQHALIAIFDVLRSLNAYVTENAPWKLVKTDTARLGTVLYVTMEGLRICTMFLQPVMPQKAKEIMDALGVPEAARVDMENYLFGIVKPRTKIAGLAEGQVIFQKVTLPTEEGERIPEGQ

Results are percentages, as filed.
How 0% and 100% were set is not recorded. Most values in the screen are low, and negative values occur.
This is an unselected part of the compounds tested.

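Primary screen of methionyl-tRNA synthetase; the read-out is not stated. Target: Methionyl-tRNA synthetase (putative), Leishmania donovani (UniProt E9BF75). The test concentration is not given. The values are filed as inhibition. About 68,000 compounds were tested under these conditions; 0.035% (about 24) showed 50% or more at least once.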

compound	inhibition
Cc1cnn(CC2CCCN2Cc2nnc(Cc3ccccc3)o2)c1 (stereo unspecified)	3.268
NC(=O)C(c1ccc(F)cc1)N1CCN(CCO)CC1 (stereo unspecified)	-5.525
O=C(c1ccncc1)N(CCO)Cc1cc(Br)ccc1F	14.48
O=C(Nc1nc2c(s1)CNCC2)NC1CCCC1	6.775
OCc1cc2ccccc2nc1NCC1CCN(CC(F)(F)F)C1 (stereo unspecified)	14.23
CCOc1ccccc1OC1CCN(C(=O)c2ccc(=O)[nH]n2)CC1	16.33
CCC(C)S(=O)(=O)N(Cc1ccco1)Cc1ccccc1O (stereo unspecified)	6.859
O=C(Cc1ccc2c(c1)CCO2)N1CCCCC1Cn1cccn1 (stereo unspecified)	15.49
Cc1cc(N(C)C)nc(C2(C)CCCN2C(=O)c2cncnc2C)n1 (stereo unspecified)	15.53
O=C(NCC1CCN(c2ccncc2)CC1)C(O)c1ccccc1 (stereo unspecified)	16.43
Cc1nn(C)cc1-c1cc(-c2cn(C)nc2C)n(CC(=O)NC2CC2)n1	17.72
Cc1oc(CNC(=O)Cc2ccccc2Cl)cc1C(=O)O	1.344
CCc1cnc(NCC(c2ccncc2)N2CCOCC2)nc1 (stereo unspecified)	8.193
Cn1nc(C(C)(C)C)cc1NC(=O)Cn1ccccc1=O	8.564
Cc1c(C(=O)N2CCCC2c2cnn(C)c2)nnn1-c1ccccc1 (stereo unspecified)	9.206
O=C(NC1CC1)C(c1ccccc1)N1CCn2c(nnc2C2CC2)C1 (stereo unspecified)	12.22
CO[C@H]1CN(C(=O)OC(C)(C)C)CC1NCc1ccoc1 (stereo partly specified)	4.545
CN(C)c1ccc(C(=O)Nc2cnn(Cc3ccccn3)c2)cc1	16.11
CC(C)(C)c1nc(CN(Cc2cccnc2)C2CN3CCC2CC3)no1 (stereo unspecified)	15.62
O=C(CCO)N1CCC2(CCc3ccc(-c4ccoc4)cc32)CC1	14.13
CC(=O)NCc1ccc(C(=O)Nc2ccc3c(c2)C(=O)NC3)cc1	18.21
Cc1cc(F)ccc1CN1CCC(O)(CN2CCCCC2)C1 (stereo unspecified)	17.56
O=C1C[C@H]2CC[C@@H](CN1)N2C1CCSCC1	2.5
CC(C)CNC(=O)COc1cccc[n+]1[O-]	11.41
COc1c(C(=O)N2CCC(CSc3ccccc3)C2)c(C)nn1C (stereo unspecified)	13.92
CN(Cc1ccc(F)c(F)c1)Cc1cc2c(cc1Br)OCCO2	2.542
CS(=O)(=O)NCc1cc2n(n1)CCCN(Cc1cc3ccccc3o1)C2	15.38
CC1CN(Cc2cccnc2)CCN1c1ccc2nncn2n1 (stereo unspecified)	12.25
Cc1ccc(S(=O)(=O)N2CC(C)Oc3ncccc32)c(F)c1 (stereo unspecified)	24.73
Cc1csc(C2CCCCN2C(=O)c2cc(C(C)C)[nH]n2)n1 (stereo unspecified)	6.818
CNC(=O)CN1CCN(C(=O)Nc2ccc(C)s2)CC1	5.292
CC(C)n1cc(N2CC(C(=O)N3CCC(C(N)=O)CC3)CC2=O)cn1 (stereo unspecified)	11.58
Nc1nc(Sc2cccs2)cc(N2CC[C@H](CO)[C@H](O)C2)n1	8.517
COCCCNc1ncnc2c1CCN(C(=O)CC1C=CCC1)CC2 (stereo unspecified)	4.202
O=C1NC2(CCN(C/C=C/c3ccccc3)CC2)CC1c1ccccc1 (stereo unspecified)	9.537
CC(=O)Nc1ccc(-n2cncn2)c(F)c1	8.421
COCCNC(=O)Cn1c(-c2ccc(Cl)cc2)nc(C)c(CCO)c1=O	11.11
Cc1ccc(N2CCCN(C(=O)CCCn3ccnc3C)CC2)nn1	-0.838
COCC1Cn2nnc(-c3cnn(C)c3)c2CN1Cc1ccc(C)o1 (stereo unspecified)	-3.526
O=C(Cc1ccccc1F)N1CCN(C(=O)c2cccc(F)c2)CC1	-1.408
Cn1ccnc1CN1CCC2(CC1)CN(CC1CC1)C(=O)CO2	-2.941
CCc1ccc(-n2c(=O)[nH]c3nc(N4CCSCC4)ncc3c2=O)cc1	14.08
COc1ccccc1CN(C)c1nc2c(cnn2C)c(=O)[nH]1	8.659
CC(=O)N1CCC(c2cc3c(ncn3C)c(-c3cnn(C)c3)n2)CC1	15.94
Cc1csc(N2CCN(C(=O)c3c(C)oc(C)c3C)CC2)n1	12.43
Cc1nn(C)c(C)c1CCC(=O)N(C)Cc1ccc(C#N)cc1	19.6
CN(Cc1ccc(C#N)cc1)c1ncc(C(N)=O)cc1Cl	10.48
COc1ccccc1C1CC(=O)Nc2c1c(=O)[nH]n2C1CCCC1 (stereo unspecified)	14.48
O=C(NCCCn1ccnc1)N1CCN(c2cccs2)CC1	24.74
Cc1nnc(NCc2ccc(SC(F)F)cc2)o1	10.99
O=C(CCC1CCCC1)N1CCCC(c2ncc3c(n2)CCNC3)C1 (stereo unspecified)	17.48
O=C(NCCc1cnccn1)C1(N2CCCCC2)Cc2ccccc2C1	5.602

The first 4 entries again:

{"compound": "Cc1cnn(CC2CCCN2Cc2nnc(Cc3ccccc3)o2)c1", "stereo": "stereo unspecified", "inhibition": 3.268}
{"compound": "NC(=O)C(c1ccc(F)cc1)N1CCN(CCO)CC1", "stereo": "stereo unspecified", "inhibition": -5.525}
{"compound": "O=C(c1ccncc1)N(CCO)Cc1cc(Br)ccc1F", "inhibition": 14.48}
{"compound": "O=C(Nc1nc2c(s1)CNCC2)NC1CCCC1", "inhibition": 6.775}